Source: patent publication US9187518B2, “Antiangiogenic brassinosteroid compounds” (CONSEJO NACIONAL DE INVESTIGACIONES CIENTIFICAS Y TECNICAS …, priority 2011, dated 2015)
At least one structure is not confirmed: it was looked up by name or label, or the drawing left a doubt.

Key:
[1] = tested on: NF-κB p65 subunit; assay: NF-κB p65 nuclear translocation in HSV-1 infected IOBA-NHC and HCLE cells (IFI); assay type: cell-based, human; conditions: 40 μM
Protocol: IOBA-NHC and HCLE cells monolayers grown on coverslips in 24-well plates were infected with 0.2 ml of HSV-1 KOS (m.o.i.=1) and incubated 1 h at 37° C. Then, the inoculums were removed and cells were coated with a DMEM/F12 without SFB, for 24 h at 37° C.
After incubation, cells were fixed in methanol at −20° C. for 10 min, and processed for indirect immunofluorescence (IFI) with antibodies directed against the glycoprotein D (gD) of HSV-1 and/or the p65 subunit of NF-κB. […]
The images obtained with a 40× magnification were imported into NIH Image J 1.34s program (designed by Wayne Rasband, NIMH, Bethesda). […] We analyzed the total and nuclear fluorescence of the individual cells and a mean fluorescence density was obtained for each. To compare the distribution of fluorescence within the cell, the results were analyzed in a spreadsheet (Excel®). The total fluorescence intensity or nuclear density was calculated as the total or nuclear average per total or nuclear area, respectively. Then, we calculated the percentage of nuclear intensity or the percentage of nuclear intensity with respect to the total intensity for each cell. Non-stimulated cells were processed to establish a baseline of nuclear fluorescence (cut-off value). […]

[2] = tested on: HSV-1; assay: Murine model of HSV-1 corneal infection (herpetic stromal keratitis, HSK); assay type: in vivo, mice; conditions: administered during the first 3 days after HSV-1 infection
[3] = tested on: IL-8; assay: IL-8 secretion in epithelial cells (ELISA); assay type: cell-based, human
[4] = tested on: TNF-α; assay: TNF-α secretion in epithelial cells (ELISA); assay type: cell-based, human; conditions: HSV-1 infected IOBA-NHC cells, 40 μM, 24 h
[5] = tested on: IL-6; assay: IL-6 secretion in epithelial cells (ELISA); assay type: cell-based, human; conditions: 40 μM, 24 h, vs infected control

C[C@@H]1C[C@H]2[C@@H]3CCC4=CC(=O)C=C[C@]4(C)[C@@]3(F)[C@@H](O)C[C@]2(C)[C@@]1(O)C(=O)CO [DEX, Dexamethasone, reference compound]
percentage of cells exhibiting NF-κB translocation to the nucleus ([1]; HCLE cells infected with HSV-1 (m.o.i.=1)): did not prevent NF-κB nuclear translocation
percentage of cells exhibiting NF-κB translocation to the nucleus ([1]; IOBA-NHC cells infected with HSV-1 (m.o.i.=1)): did not prevent NF-κB nuclear translocation
signs of keratitis [2]: exacerbated ocular damage
IL-8 secretion ([3]; HSV-1 infected HCLE cells, 40 μM, 24 h (untreated infected 142.9±0.5)): slightly, but significantly, reduced
IL-8 secretion ([3]; HSV-1 infected IOBA-NHC cells, 40 μM, 24 h (untreated infected 252±7.8)): slightly, but significantly, reduced
IL-8 secretion ([3]; uninfected HCLE cells, compound alone, vs basal level): slightly, but significantly, reduced
IL-8 secretion ([3]; uninfected IOBA-NHC cells, compound alone, vs basal level): slightly, but significantly, reduced
TNF-α production [4]: abrogated
IL-6 release ([5]; HSV-1 infected HCLE cells): considerably reduced
IL-6 release ([5]; HSV-1 infected IOBA-NHC cells): considerably reduced
